## Library screen at single concentrations

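Assay of Toxoplasma gondii numbers, read through their beta-galactosidase reporter with a colour substrate. Tested at 10 µM. The record gives no direction; the compounds picked for IC50 retests had high values, so higher reads as fewer parasites. Of about 67,000 compounds tested this way, about 260 (0.38%) reached 50% or more in at least one test.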

Results are given as percent effect.
The record does not define 0% and 100%; most values in the screen are far below 50% and negative numbers occur (in some assays of this library far below -100).
Compounds were drawn at random from those tested, without regard to their results.

structure | Percent Effect
CO[C@H]1CNC[C@@H]1NC(=O)c1cc(C)nc2c(C)cc(C)cc12 | 15.73%
Cc1nc(NC(=O)C(C)n2ncc(Br)c2C)sc1C (stereo not given) | 3.153%
COc1c(CNCCC(=O)Nc2cccc(C)n2)c(C(C)C)nn1C | 14.74%
CCc1nccn1C1CCCN(C(=O)c2csc(COC)n2)C1 (stereo not given) | 5.339%
Cn1nc(C2CCCNC2)c2c(C(=O)NC3CC3)cc(C3CC3)nc21 (stereo not given) | -11.6%
CCS(=O)(=O)N1CCN(C(=O)NC(C)C)CC2(CNC(=O)C2)C1 (stereo not given) | -9.684%
Cn1ccnc1CNc1nccc(-c2ncnn2C)n1 | 2.7%
O=C(NCC1CN(c2ncccn2)Cc2nccn2C1)c1cccnc1.O=C(O)C(F)(F)F (stereo not given) | 3.883%
CCCN(Cc1nc2ccccc2[nH]1)Cc1ccccc1OC | 10.86%
O=C(O)CCNC(=O)C1(c2cccc(Br)c2)CCOCC1 | -0.4231%
Fc1ccc(-c2cnc(CN3CCn4c(nnc4C4CC4)C3)o2)cc1 | -27.03%
CCOCC1c2c(cnn2C)CCN1C(=O)c1cc(C)on1.O=C(O)C(F)(F)F (stereo not given) | -6.252%
Cc1cc(C)nc(Nc2cccc(C3CCCN(C(C)C)C3)n2)n1 (stereo not given) | -26.63%
CCc1nc(C)c(C(=O)N2CCCN(Cc3cnn(C)c3)CC2)s1 | 5.559%
CCN1CCC2(CCC1=O)CN(c1nccc(N)n1)CCN2C (stereo not given) | 1.379%
COCCNC(=O)N1CCCCC1CNC(=O)Nc1ccccc1 (stereo not given) | 1.782%
O=C(Nc1ccc2c(c1)C(=O)NC2=O)c1cccs1 | 15.35%
O=C(c1ccc2c(c1)OCO2)N1C[C@@H](CN2CCCCC2)[C@@H](CO)C1 | 11.64%
COC(=O)c1ccc(C2CC(=O)Oc3cc(C)[nH]c(=O)c32)cc1 (stereo not given) | -3.586%
CC1CCN(C(=O)c2cc(NC(=O)c3ccccc3)n(C)n2)CC1 | -2.54%
O=C(c1ccoc1)N1CCC2(CC1)C(=O)Nc1ccccc12 | 1.116%
CC(C)c1cc(NC(=O)CNC2CCc3ncnn3C2)on1 (stereo not given) | 14.31%
CN(Cc1cc(C2CC2)[nH]n1)Cc1cc2ccc(F)cc2[nH]c1=O | 2.041%
CNS(=O)(=O)c1ccc(CCC(=O)NCc2cccc(OC)c2)cc1 | -5.455%
CCOCCn1nc(C)cc1C(=O)N1CC[C@@](O)(COC)C(C)(C)C1 | 13.06%
CC1(C)CCC(CC(=O)O)c2ccccc21 (stereo not given) | -2.521%
O=C(CCc1cccs1)N1CCCC(n2ccnc2)C1 (stereo not given) | -41.42%
COc1cccc(CNC(=O)NC2(c3nc(C)no3)CCCCC2)c1 | 14.93%
CN(Cc1cnn(C)c1)C(=O)c1ccnc(OC2CCC2)c1 | 2.655%
CCn1cc(CN2CCCN(C(=O)CCc3ccccc3)CC2)cn1 | -10.94%
Cc1cc(NC(=O)CNC2CCc3ncnn3C2)on1 (stereo not given) | 11.4%
CN1CCCC1c1ccnc2nccn12 (stereo not given) | 1.726%
CSc1nccn1-c1cccc(C(=O)NCCC(=O)NC(C)C)c1 | -9.23%
CCC(CN1CCCCC1)NC(=O)C1(c2cccc(F)c2)CC1.O=C(O)CC(O)(CC(=O)O)C(=O)O (stereo not given) | 27.54%
CC(C)NC(=O)N1CCOC2(CCCNC2)C1 (stereo not given) | 3.622%
COCC(=O)N1CCC2(CC1)CC(N1CCN(C)CC1)CO2 (stereo not given) | 2.819%
CCc1ccc(CN2CCOC(Cc3cccc(F)c3)C2)nc1 (stereo not given) | -26.8%
COc1ccc(C(=O)NCCC(N)=O)c(I)c1 | 3.838%
CC(C)c1cc(NC(=O)CN2CCCC2Cn2cncn2)on1 (stereo not given) | 7.045%
O=C(COc1ccccc1)N1CCCC1c1ccc[nH]1 (stereo not given) | 20.13%
O=C(O)C(F)(F)F.[H][C@@]12C[C@@H](C(=O)N3CCC(C)CC3)CN(Cc3ccoc3)[C@]1([H])CCO2 | 13.89%
CCc1nccn1C1CCCN(C(=O)c2cncnc2C)C1 (stereo not given) | 25.9%
Brc1cccc(-c2noc(CN3CCOCC3)n2)c1 | -18.08%
Cn1cc(S(=O)(=O)NCC2CCN(C(=O)c3ccoc3)CC2)cn1 | 3.511%
[H][C@]12CC[C@]([H])(CN(Cc3cscn3)C1)N(C(=O)CSc1ccccn1)C2 | -7.659%
CN(c1ccc(C(=O)NCCCN2CCCC2)c(Cl)c1)S(C)(=O)=O | 13.5%
O=S(=O)(Cc1ccccc1)NCc1ccnc(O)c1 | 3.601%
Cc1cnn(CC2CN(CC(=O)Nc3nnc(C)s3)CCO2)c1 (stereo not given) | -4.799%
Cc1ncc(CNC(=O)NCC(C)Oc2ccccc2F)s1 (stereo not given) | -19.6%
Cc1nc(CN2CCCC2c2noc(C3CC3)n2)oc1C (stereo not given) | -13.64%
CCCN1CCCC1c1nc(Cc2ccc(F)cc2)no1 (stereo not given) | 2.717%
CC(C)c1nc(N2CCN3CCCC3C2)c2cnn(C)c2n1 (stereo not given) | -1.745%

Once more, the final 4:

| structure | Percent Effect |
|---|---|
| `Cc1ncc(CNC(=O)NCC(C)Oc2ccccc2F)s1` (stereo not given) | -19.6% |
| `Cc1nc(CN2CCCC2c2noc(C3CC3)n2)oc1C` (stereo not given) | -13.64% |
| `CCCN1CCCC1c1nc(Cc2ccc(F)cc2)no1` (stereo not given) | 2.717% |
| `CC(C)c1nc(N2CCN3CCCC3C2)c2cnn(C)c2n1` (stereo not given) | -1.745% |

Measurements from “University of Dundee, Small-Polar-MMV Screening Library” (2021), ChEMBL document CHEMBL3988442.